# Assay results: the supplement of paper PMC10403144
# This is one part of the list.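 How the source made its calls: active = mitochondrial OCR inhibition above 30% at 1 uM; inactive = 30% or less.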 Most values come without repeats; read them as rough.
# Test system: Toxoplasma gondii RH tachyzoites
# Assay: inhibition of mitochondrial O2 consumption rate (% inhibition (relative to pre-injection OCR and atovaquone/antimycin A control)); higher = stronger ETC inhibition
# Conditions: 1 µM; injection port (sequential injection order): A
row,SMILES,inhibition of mitochondrial O2 consumption rate
1,COc1ccc(Nc2ccccc2NC(=O)c2ccc(O)nc2)cc1,inactive: -2.35
2,CN1CCN(S(=O)(=O)c2ccc(-c3ccc4c(Nc5ccc6nn[nH]c6c5)ccnc4c3)cc2)CC1,inactive: -7.06
3,Brc1c(-c2ccc3c(c2)OCO3)nc2ncccn12,inactive: 2.02
4,CN1CCC(NCc2cccc(-c3ccc(S(=O)(=O)NCc4ccccc4)cc3)c2)CC1,inactive: -6.06
5,CNC(=O)C1Cc2ccccc2N1C(=O)Cc1ccc(F)cc1 (stereo not drawn),inactive: -1.12
6,COc1ccc(-c2cncc3ccc(C(=O)NCCCn4ccnc4)nc23)cc1,inactive: -8.3
7,c1coc(CNc2nc(N3CCCCC3)nc3ccccc23)c1,inactive: -2.89
8,O=C(NC1CC1)c1ccc(CSCc2ccccc2Cl)o1,inactive: -6.85
9,CN1CCN(c2cc(-c3ccc(F)cc3)nc(-c3ccncc3)n2)CC1,inactive: -0.0615
10,N#Cc1nc(-c2ccccc2)oc1S(=O)(=O)c1ccc(Cl)cc1,inactive: -7.5
11,O=C(Nc1ccccc1-c1nc2c(C(=O)O)cccc2o1)c1ccccc1,inactive: -8.59
12,COc1cccc2c(C)nc(N=C(N)N)nc12,inactive: -3.95
13,O=C1COCc2ccc(Br)cc2N1Cc1ccc(C(F)(F)F)cc1,inactive: -8.64

# Same assay, conditions: 1 µM; injection port (sequential injection order): B
row,SMILES,inhibition of mitochondrial O2 consumption rate
1,COc1ccc(C2CC(c3cccs3)=NN2C(=O)c2ccco2)cc1OC (stereo not drawn),inactive: -20.3
2,Nc1ncnc2c1c(-c1cnc3ccccc3c1)nn2CC1CCNCC1,inactive: -5.04
3,Cc1ccc2c(c1C)NC(=O)C21NN=C(c2ccccc2)S1 (stereo not drawn),inactive: -12.8
4,CC[P](CC)(CC)=[Au][S][C@H]1O[C@@H](COC(C)=O)[C@H](OC(C)=O)[C@@H](OC(C)=O)[C@@H]1OC(C)=O,active: 59
5,Cc1cc2ccccc2n1CC(=O)N1CC(C(=O)N2CCCCC2)Oc2ccccc21 (stereo not drawn),inactive: -3.2
6,COc1cccc(OC)c1C(=O)Nc1ccc(Cl)c(-c2nc3ccccc3s2)c1,inactive: -20
7,O[C@@H](c1cc(C(F)(F)F)nc2c(C(F)(F)F)cccc12)[C@H]1CCCCN1,inactive: -1.24
8,COc1cccc(-c2cc3c(Nc4cccnc4)nccc3[nH]2)c1,inactive: -15.8
9,CC1(C)Cc2c(c(N3CCOCC3)nc3snc(Br)c23)CO1,inactive: -5.38
10,CCN(CC)S(=O)(=O)c1ccc(Cl)c(C(=O)Nc2ccc3nc(C)sc3c2)c1,inactive: -8

# Same assay, conditions: 1 µM; injection port (sequential injection order): C
row,SMILES,inhibition of mitochondrial O2 consumption rate
1,COc1ccc(-c2nn(C(C)C)c3ncnc(N)c23)cc1OC,inactive: -27.1
2,O=C(N[C@H](Cc1ccccc1)C(=O)Nc1ccccc1N1CCOCC1)c1cccs1,inactive: -6.56
3,CC(Oc1ccccc1)C(=O)Nc1nc(-c2ccccn2)cs1 (stereo not drawn),inactive: 5.27
4,CC(C)NCC(=O)Nc1cccc(C(=O)Nc2cccc(C(F)(F)F)c2)c1,inactive: -19.3
5,O=C(C1CCN(c2cc(-n3cccc3)ncn2)CC1)N1CCc2ccccc2C1,inactive: -9.4
6,Cc1ccc2[nH]c(C3CCCNC3)c(-c3ccncc3)c2c1 (stereo not drawn),inactive: 1.81
7,COc1cc(CN2CCC3(C=Cc4ccccc43)CC2)cc2c1OCO2,inactive: -24.1
8,CCc1cc(=O)n(C)c(SC(C)C(=O)Nc2ccc(F)cc2)n1 (stereo not drawn),inactive: -0.986
9,Cc1nc(-c2cccc(NCc3ccccc3)c2)[nH]c1C,inactive: -17
10,c1cncc(NCc2ccc(-c3cc4ccncc4cc3OC3CCNCC3)s2)c1,inactive: -29.2
11,CCCCc1ccc(C(=O)Nc2nccc3ccccc23)nc1,inactive: -5.27
12,COc1cccc(-c2nc3c(N4CCCC4)cccc3n2CC2CCCN2)n1 (stereo not drawn),inactive: -12.3
13,Cc1cc(NCCc2ccccc2)nc(NC(=N)Nc2ccc(Cl)cc2)n1,inactive: -14.5
14,CS(=O)(=O)N1CCC(Cn2nc(Cc3cccc4ccccc34)c3c(N)ncnc32)CC1,inactive: -9.11
15,Cc1cc(Cl)ccc1NC(=O)CCc1ccc(S(=O)(=O)NCC(C)C)cc1,inactive: -16

# Two of these compounds in a different format:
row | SMILES | inhibition of mitochondrial O2 consumption rate
5 | O=C(C1CCN(c2cc(-n3cccc3)ncn2)CC1)N1CCc2ccccc2C1 | inactive: -9.4
6 | Cc1ccc2[nH]c(C3CCCNC3)c(-c3ccncc3)c2c1 (stereo not drawn) | inactive: 1.81
